Experimental data taken from article PMC3907856.
These are yes or no findings as the source states them, for the method shown. Binding seen in cells or lysates may run through a third protein. A result given as binding can be weak or reduced; the word gives no strength.

Target: T1, phostensin-β (human) (UniProt Q6NYC8)
T1 sequence: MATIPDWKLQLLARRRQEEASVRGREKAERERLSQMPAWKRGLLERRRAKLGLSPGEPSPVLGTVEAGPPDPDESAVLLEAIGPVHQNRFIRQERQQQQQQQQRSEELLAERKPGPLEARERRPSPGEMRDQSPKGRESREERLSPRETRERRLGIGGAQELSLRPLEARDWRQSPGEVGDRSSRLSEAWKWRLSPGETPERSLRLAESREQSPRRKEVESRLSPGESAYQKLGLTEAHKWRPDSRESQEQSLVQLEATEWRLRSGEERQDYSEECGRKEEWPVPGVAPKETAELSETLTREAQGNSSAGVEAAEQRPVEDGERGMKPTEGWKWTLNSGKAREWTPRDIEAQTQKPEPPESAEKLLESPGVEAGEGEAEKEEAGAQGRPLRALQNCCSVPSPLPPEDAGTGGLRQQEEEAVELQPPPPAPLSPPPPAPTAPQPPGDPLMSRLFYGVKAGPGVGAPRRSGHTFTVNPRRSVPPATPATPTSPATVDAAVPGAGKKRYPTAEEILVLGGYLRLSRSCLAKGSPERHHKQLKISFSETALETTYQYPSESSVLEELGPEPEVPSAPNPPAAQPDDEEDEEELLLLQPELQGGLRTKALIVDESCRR
Assay: co-IP; 293T cells co-transfected with pPP1-EGFP and pCMV-SPORT6 phostensin-β, 48 h; RIPA extract (300 ug) precipitated by PT2 on protein G-Sepharose; western blot with anti-EGFP antibody

- binding: binds
Substance: PP1-EGFP
